{"source": "paper PMC8384837", "note": "The list shows a part of the results.", "data": [{"molecular_target": "T1, PUM1 PUF domain R6-SWD R7-NPG N1043S + Y1044W + Q1047D + S1079N + N1080P + E1083G (Homo sapiens) (UniProt Q14671)", "T1 sequence": "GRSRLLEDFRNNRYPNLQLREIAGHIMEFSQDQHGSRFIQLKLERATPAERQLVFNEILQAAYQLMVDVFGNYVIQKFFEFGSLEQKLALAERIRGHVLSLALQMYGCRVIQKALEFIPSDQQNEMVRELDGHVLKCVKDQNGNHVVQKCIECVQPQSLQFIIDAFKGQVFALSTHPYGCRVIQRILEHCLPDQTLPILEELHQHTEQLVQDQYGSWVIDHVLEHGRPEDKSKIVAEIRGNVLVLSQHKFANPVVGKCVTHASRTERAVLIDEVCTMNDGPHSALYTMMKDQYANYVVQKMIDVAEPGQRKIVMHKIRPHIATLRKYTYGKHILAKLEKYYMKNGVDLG", "conditions": "yeast three-hybrid, YBZ-1, SC-Leu-His + 0.5 mM 3-AT, 4 days", "values": [{"sequence": "GGCUAGAACUAGUGGAUCCCCCGGCGCCCGGCGGCUCGAGCCCGGGUAAGUGUAGGUUGUCUGCAUGCCGCCGGGCGCCAUGCCUGCAGGUCGACUCUAGAAAACAUG", "binding signal (log2 enrichment (interaction score))": -1.65}, {"sequence": "GGCUAGAACUAGUGGAUCCCCCGGCGCCCGGCGGCUCGAGCCCGGGUAAGUCUAAUUAGUCUGCAUGCCGCCGGGCGCCAUGCCUGCAGGUCGACUCUAGAAAACAUG", "binding signal (log2 enrichment (interaction score))": -1.2}, {"sequence": "GGCUAGAACUAGUGGAUCCCCCGGCGCCCGGCGGCUCGAGCCCGGGUAAGUUGAGAUGGUCUGCAUGCCGCCGGGCGCCAUGCCUGCAGGUCGACUCUAGAAAACAUG", "binding signal (log2 enrichment (interaction score))": -0.56}, {"sequence": "GGCUAGAACUAGUGGAUCCCCCGGCGCCCGGCGGCUCGAGCCCGGGUAAGAAUAAGGAGUCUGCAUGCCGCCGGGCGCCAUGCCUGCAGGUCGACUCUAGAAAACAUG", "binding signal (log2 enrichment (interaction score))": -0.51}]}]}
